For two molecules, ED50 and inhibition in vivo results are on record in ChEMBL document CHEMBL1130002, “Synthesis and biological evaluation of the 1,5-diarylpyrazole class of cyclooxygenase-2 inhibitors: identification of 4-[5-(4-methylphenyl)-3-(trifluoromethyl)-1H-pyrazol-1-yl]benze nesulfonamide (SC-58635, celecoxib)” (J Med Chem, 1997).

What all share (experiment): animal or person
The species entered for assay [1] is Rattus norvegicus. The assay is classed as functional.
The species named for assay [2] is Rattus norvegicus. Conditions: Foot pad, read-out: Inhibition.
The species entered for assay [3] is Rattus norvegicus. The assay is classed as functional. This is another data set of the same source.
The species named for assay [4] is Rattus norvegicus. The assay is classed as functional. This is another data set of the same source.

In turn, `NS(=O)(=O)c1ccc(-n2nc(C(F)(F)F)cc2-c2ccccc2)cc1` displayed an ED50 in the assay filed under Rattus norvegicus [1] of 0.29 mg/kg. Also, in the assay filed under Rattus norvegicus [2], the inhibition in vivo at 30 mg/kg was determined as 50%.

Take `NS(=O)(=O)c1ccc(-n2ncc(Cl)c2-c2ccccc2)cc1`: the figures for the 50% effective dose (ED50) in the assay listed under Rattus norvegicus [1], in the assay listed under Rattus norvegicus [3] and in the assay listed under Rattus norvegicus [4] were 0.33 mg/kg, 9.2 mg/kg and 32.3 mg/kg, respectively.

The term ED50 denotes the midpoint of the dose-response relation. The low end stands for an effect at a small dose, the high end for a need for a large dose.
